This is a selection; strong and weak results do not stand in their true shares. Calls are pooled over several reports, among them a noisy single-well screen. This is one part of the list.
Assays:
Settings in all cases: stereoisomer not certain
OR4D6 = tested on: OR4D6
Outline: (§1)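 Each entry records the cell line, G-protein, co-transfected protein and tags used. Methods varied with the source, often transient luciferase assays in mammalian cell lines. A receptor–molecule pair is called responsive (active) if the original authors judged its signal statistically different from baseline and non-responsive (inactive) otherwise.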

Chains of the proteins cited; added tags and fusions are not shown. Where a name states a change or a piece, a line headed by the entry shows the natural chain unless it says otherwise. A line that says so, or that is headed by a name, gives the form on record, which may keep a tag or linker.
UniProt Q8NGE8: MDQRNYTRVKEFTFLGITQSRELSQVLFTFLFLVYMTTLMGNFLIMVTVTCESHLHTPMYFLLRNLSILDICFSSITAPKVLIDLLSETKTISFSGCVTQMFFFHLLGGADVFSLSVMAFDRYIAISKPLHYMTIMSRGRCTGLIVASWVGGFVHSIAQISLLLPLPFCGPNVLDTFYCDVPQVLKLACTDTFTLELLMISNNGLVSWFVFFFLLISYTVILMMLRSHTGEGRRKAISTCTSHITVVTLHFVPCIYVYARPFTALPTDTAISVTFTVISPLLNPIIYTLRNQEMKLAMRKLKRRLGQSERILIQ
UniProt P0C645: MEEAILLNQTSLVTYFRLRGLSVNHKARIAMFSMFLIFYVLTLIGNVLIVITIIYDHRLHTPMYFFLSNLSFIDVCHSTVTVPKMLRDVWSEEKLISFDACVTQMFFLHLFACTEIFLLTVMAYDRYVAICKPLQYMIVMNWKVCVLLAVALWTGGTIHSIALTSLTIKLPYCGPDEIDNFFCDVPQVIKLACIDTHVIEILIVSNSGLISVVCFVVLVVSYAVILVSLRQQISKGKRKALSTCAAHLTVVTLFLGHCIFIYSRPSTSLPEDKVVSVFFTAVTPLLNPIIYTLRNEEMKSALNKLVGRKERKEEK
UniProt Q8NGA8: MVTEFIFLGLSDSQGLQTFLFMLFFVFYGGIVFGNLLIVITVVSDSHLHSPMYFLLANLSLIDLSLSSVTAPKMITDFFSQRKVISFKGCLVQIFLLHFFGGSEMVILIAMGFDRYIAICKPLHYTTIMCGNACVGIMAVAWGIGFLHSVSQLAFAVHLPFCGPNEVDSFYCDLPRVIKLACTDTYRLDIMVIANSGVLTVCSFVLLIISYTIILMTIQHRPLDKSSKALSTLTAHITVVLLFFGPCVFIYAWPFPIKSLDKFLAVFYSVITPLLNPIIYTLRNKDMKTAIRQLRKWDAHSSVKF
OR4D6, as listed by the source: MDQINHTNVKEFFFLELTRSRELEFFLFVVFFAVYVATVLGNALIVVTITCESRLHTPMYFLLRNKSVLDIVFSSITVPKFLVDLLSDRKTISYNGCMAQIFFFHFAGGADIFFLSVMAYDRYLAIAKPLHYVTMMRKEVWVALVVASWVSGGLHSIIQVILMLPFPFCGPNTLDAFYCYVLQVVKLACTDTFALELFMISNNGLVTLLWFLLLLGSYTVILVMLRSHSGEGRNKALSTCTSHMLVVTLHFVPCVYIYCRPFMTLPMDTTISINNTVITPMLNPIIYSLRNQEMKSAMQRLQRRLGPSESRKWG

OR4D9 (Homo sapiens) = OR4D9 (Homo sapiens) (UniProt Q8NGE8)
Outline: as §1

OR4E2 = tested on: T1, OR4E2
T1 sequence (whole entry): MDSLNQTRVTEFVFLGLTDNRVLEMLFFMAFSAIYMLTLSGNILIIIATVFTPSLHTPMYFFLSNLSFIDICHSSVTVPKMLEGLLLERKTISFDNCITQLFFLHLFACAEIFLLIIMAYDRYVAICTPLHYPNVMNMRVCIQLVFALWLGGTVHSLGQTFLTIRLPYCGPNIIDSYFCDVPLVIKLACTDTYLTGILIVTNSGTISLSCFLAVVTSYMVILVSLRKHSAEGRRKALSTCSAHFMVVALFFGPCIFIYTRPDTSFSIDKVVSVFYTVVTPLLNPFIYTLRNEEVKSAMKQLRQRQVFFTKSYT
Outline: as §1

OR4F15 (Homo sapiens) = target: T2, OR4F15 (Homo sapiens) (UniProt Q8NGB8)
T2 sequence (whole entry): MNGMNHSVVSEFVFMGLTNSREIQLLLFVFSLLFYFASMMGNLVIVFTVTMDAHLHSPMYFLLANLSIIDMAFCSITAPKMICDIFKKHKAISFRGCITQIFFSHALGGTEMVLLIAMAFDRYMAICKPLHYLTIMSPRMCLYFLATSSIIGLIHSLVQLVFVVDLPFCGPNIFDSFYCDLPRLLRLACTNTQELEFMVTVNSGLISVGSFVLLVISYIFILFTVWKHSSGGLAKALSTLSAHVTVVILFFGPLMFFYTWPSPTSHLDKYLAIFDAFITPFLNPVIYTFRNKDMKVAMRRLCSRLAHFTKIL
Outline: as §1

OR4F3 (Homo sapiens) = target: T3, OR4F3 (Homo sapiens) (UniProt Q6IEY1)
T3 sequence (whole entry): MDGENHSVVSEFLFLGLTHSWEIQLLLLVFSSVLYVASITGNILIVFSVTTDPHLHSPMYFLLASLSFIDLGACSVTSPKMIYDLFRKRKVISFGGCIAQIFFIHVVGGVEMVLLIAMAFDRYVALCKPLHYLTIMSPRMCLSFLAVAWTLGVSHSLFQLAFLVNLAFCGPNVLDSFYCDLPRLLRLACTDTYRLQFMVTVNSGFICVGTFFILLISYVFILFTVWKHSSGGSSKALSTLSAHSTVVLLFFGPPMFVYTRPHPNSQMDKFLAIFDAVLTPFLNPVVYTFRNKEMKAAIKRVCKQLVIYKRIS
Outline: as §1

OR4F3 = tested on: T4, OR4F3
T4 sequence (whole entry): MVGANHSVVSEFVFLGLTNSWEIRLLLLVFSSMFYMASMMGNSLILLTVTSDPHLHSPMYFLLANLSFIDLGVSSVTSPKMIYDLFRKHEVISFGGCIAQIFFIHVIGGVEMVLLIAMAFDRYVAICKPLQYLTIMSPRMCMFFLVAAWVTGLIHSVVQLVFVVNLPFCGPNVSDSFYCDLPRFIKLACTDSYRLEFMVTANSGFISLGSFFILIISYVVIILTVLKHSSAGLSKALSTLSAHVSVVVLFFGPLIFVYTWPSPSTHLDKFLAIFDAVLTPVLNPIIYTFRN
Outline: as §1

OR4E1 (Homo sapiens) = OR4E1 (Homo sapiens) (UniProt P0C645)
Outline: as §1

OR4E2 (Homo sapiens) = OR4E2 (Homo sapiens) (UniProt Q8NGC2)
Outline: as §1

OR4F17 (Homo sapiens) = OR4F17 (Homo sapiens) (UniProt Q8NGA8)
Outline: as §1

OR4F21 (Homo sapiens) = OR4F21 (Homo sapiens) (UniProt O95013)
Outline: as §1

Compound	odorant receptor agonist call (OR4D6)	odorant receptor agonist call (OR4D9 (Homo sapiens))	odorant receptor agonist call (OR4E2)	odorant receptor agonist call (OR4F15 (Homo sapiens))	odorant receptor agonist call (OR4F3 (Homo sapiens))	odorant receptor agonist call (OR4F3)	odorant receptor agonist call (OR4E1 (Homo sapiens))	odorant receptor agonist call (OR4E2 (Homo sapiens))	odorant receptor agonist call (OR4F17 (Homo sapiens))	odorant receptor agonist call (OR4F21 (Homo sapiens))
CC12CCC(C1)C(C)(C)C2=O (stereo not drawn)	inactive	inactive	inactive	inactive	inactive	inactive	–	–	–	–
CC(C)=CCCC(C)=CC=O	inactive	inactive	inactive	inactive	inactive	inactive	–	–	–	–
CCCCCCCCOC(C)=O	inactive	inactive	inactive	inactive	inactive	inactive	–	–	–	–
COC(=O)c1ccccc1O	inactive	inactive	inactive	inactive	inactive	inactive	–	–	–	–
CC12CCC(CC1)C(C)(C)O2	inactive	inactive	inactive	inactive	inactive	inactive	–	–	–	–
C=CCc1ccc(OC(C)=O)c(OC)c1	inactive	inactive	inactive	inactive	inactive	inactive	–	–	–	–
CC=Cc1ccc(O)c(OC)c1	inactive	inactive	inactive	inactive	inactive	inactive	–	–	–	–
CC(=O)c1ccccc1	inactive	inactive	inactive	inactive	inactive	inactive	–	–	–	–
COc1ccccc1O	inactive	inactive	inactive	inactive	inactive	inactive	–	–	–	–
CCCCCCCOC(C)=O	inactive	inactive	inactive	inactive	inactive	inactive	–	–	–	–
CC(=O)OC(C)(C)C1CC=C(C)CC1 (stereo not drawn)	inactive	inactive	inactive	inactive	inactive	inactive	–	–	–	–
COc1cc(C)ccc1O	inactive	inactive	inactive	inactive	inactive	inactive	–	–	–	–
CCCCCOC(C)=O	inactive	inactive	inactive	inactive	inactive	inactive	inactive	–	–	–
CCCC(=O)O	inactive	inactive	inactive	inactive	inactive	inactive	–	–	–	–
O=CCc1ccccc1	inactive	inactive	inactive	inactive	inactive	inactive	–	–	–	–
CCC=CCCO	inactive	inactive	inactive	inactive	inactive	inactive	–	–	–	–
CC1COCc2cc3c(cc21)C(C)(C)C(C)C3(C)C (stereo not drawn)	inactive	active	active	active	active	inactive	inactive	–	–	–
CC1=CCC(C(C)(C)O)CC1 (stereo not drawn)	inactive	inactive	inactive	inactive	inactive	inactive	–	–	–	–
C=CCSCC=C	inactive	inactive	inactive	inactive	inactive	inactive	–	–	–	–
CCCCCC(C)=O	inactive	inactive	inactive	inactive	inactive	inactive	–	–	–	–
CCCCCCCC=CC=O	inactive	inactive	inactive	inactive	inactive	active	–	–	–	–
CCCCCCCCCCC=O	inactive	inactive	inactive	inactive	inactive	inactive	–	–	–	–
c1ccc(Oc2ccccc2)cc1	inactive	inactive	inactive	inactive	inactive	inactive	–	–	–	–
C=CC(C)(O)CCC=C(C)C (stereo not drawn)	inactive	inactive	inactive	inactive	inactive	inactive	–	–	–	–
CCCCCCCCCC=O	inactive	inactive	inactive	inactive	inactive	inactive	–	–	–	–

Copied from the list:
odorant receptor agonist call (OR4F15 (Homo sapiens)) with CC1COCc2cc3c(cc21)C(C)(C)C(C)C3(C)C (stereo not drawn) reads active
odorant receptor agonist call (OR4F3) with CCCC(=O)O reads inactive

Remaining list, next part.

Compound	odorant receptor agonist call (OR4D6)	odorant receptor agonist call (OR4D9 (Homo sapiens))	odorant receptor agonist call (OR4E2)	odorant receptor agonist call (OR4F15 (Homo sapiens))	odorant receptor agonist call (OR4F3 (Homo sapiens))	odorant receptor agonist call (OR4F3)	odorant receptor agonist call (OR4E1 (Homo sapiens))	odorant receptor agonist call (OR4E2 (Homo sapiens))	odorant receptor agonist call (OR4F17 (Homo sapiens))	odorant receptor agonist call (OR4F21 (Homo sapiens))
CC12C=CCC1C1CCC3CC(=O)CCC3(C)C1CC2 (stereo not drawn)	active	–	inactive	inactive	inactive	inactive	–	inactive	inactive	inactive
CCCCCCCC=O	inactive	inactive	inactive	inactive	inactive	inactive	–	–	–	–
O=C1CCCCC1	inactive	inactive	inactive	inactive	inactive	inactive	–	–	–	–
CC(=O)OCC=C(C)CCC=C(C)C	inactive	inactive	inactive	inactive	inactive	inactive	–	–	–	–
CC(C)CCC(=O)O	inactive	inactive	inactive	inactive	inactive	inactive	–	–	–	–
CC(=O)OC1CC2CCC1(C)C2(C)C (stereo not drawn)	inactive	inactive	inactive	inactive	inactive	inactive	–	–	–	–
CCC1(O)C2(C)CCC(C2)C1(C)C (stereo not drawn)	inactive	inactive	inactive	inactive	inactive	inactive	–	–	–	–
CC(C)C(=O)O	inactive	inactive	inactive	inactive	inactive	inactive	–	–	–	–
CC1=NC(C)SC1C (stereo not drawn)	inactive	inactive	inactive	inactive	inactive	inactive	–	–	–	–
CCCCCC(=O)O	inactive	inactive	inactive	inactive	inactive	inactive	–	–	–	–
c1cnccn1	inactive	inactive	inactive	inactive	inactive	inactive	–	–	–	–
O=C1CCCCCCCCCCCCCCO1	inactive	inactive	inactive	inactive	inactive	inactive	–	–	–	–
CC12C=CCC1C1CCC3=CC(=O)CCC3(C)C1CC2 (stereo not drawn)	inactive	inactive	inactive	inactive	inactive	inactive	–	–	–	–
COc1cc(C=O)ccc1O	inactive	inactive	inactive	inactive	inactive	inactive	–	–	–	–
O=C1CCCCCCCCCCCC(=O)OCCO1	inactive	inactive	inactive	inactive	inactive	inactive	–	–	–	–
CC(C)(C)c1ccc(CCC=O)cc1	inactive	inactive	inactive	inactive	inactive	inactive	–	–	–	–
CC(=O)C(C)=O	inactive	inactive	inactive	inactive	inactive	inactive	–	–	–	–
COC(=O)c1ccccc1	inactive	inactive	inactive	inactive	inactive	active	–	–	–	–
CC1CCC(C(C)C)C(O)C1 (stereo not drawn)	inactive	inactive	inactive	inactive	inactive	inactive	–	–	–	–
CCCCCCOC(=O)CCC	inactive	inactive	inactive	inactive	inactive	inactive	–	–	–	–
CCCCO	inactive	inactive	inactive	inactive	inactive	inactive	–	–	–	–
C=CCc1ccc(OC)c(OC)c1	inactive	inactive	inactive	inactive	inactive	inactive	–	–	–	–
CC(C)C=O	inactive	inactive	inactive	inactive	inactive	inactive	–	–	–	–
CC(C)CC(=O)O	inactive	inactive	inactive	inactive	inactive	inactive	–	–	–	–

Reference: the M2OR odorant receptor database
